According to PubChem BioAssay AID2685 (National Center for Advancing Translational Sciences (NCATS), 2010):
The list shows a part of the results. Further columns of the screen follow, without active or inactive calls. Most of these compounds were active or inconclusive in the main read-out, so they are no random draw. Words in brackets tell the shape of the fitted curve; partial curves, single points and poor fits give uncertain potencies.

Assay: qHTS Assay for Lipid Storage Modulators in Drosophila S3 Cells;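 for cell number change: cells counted by Cell Tracker Red CMTPX staining in the red channel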
Conditions: BODIPY lipid droplet fluorescence, 18-24 h; for cell number change: measured here: cell count max response, cells fed with added oleic acid
In short: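 Laser-scanning cytometry quantifies lipid droplet accumulation (500–530 nm total intensity; droplet/cell object ratio) in oleic acid-fed (400 uM added) Drosophila S3 cells treated with a concentration series. 20 uM Triacsin C defined 100% inhibition.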

[1] = measured here: lipid fluorescence (Fed channel) AC50, cells fed with added oleic acid
[2] = measured here: cell number channel AC50, cells fed with added oleic acid

| Compound | cell number change | AC50 [1] | AC50 [2] |
| --- | --- | --- | --- |
| COCCN(C(=O)c1ccc(-c2ccc(Cl)cc2)o1)c1c(N)n(CC(C)C)c(=O)[nH]c1=O | 26.1% | 32.6 µM [falling, single point] |  |
| CCCC[C@]12Cc3ccccc3C(O1)c1c(cc(-c3ccccc3)oc1=O)O2 | -23.8% | 5.31 µM [falling, single point] |  |
| COc1ccc(/C=N/NC(=O)c2ccc(COc3ccccc3Cl)o2)c(OC)c1C | -51.2% |  | 29.1 µM [falling, single point] |
| CCOC(=O)c1ccc(NC(=S)NC(=O)c2cncc(Br)c2)cc1 |  | 4.61 µM [rising, partial curve] |  |
| CCNc1nc(NCC)n2c(SCC(=O)Nc3ccccc3C(F)(F)F)nnc2n1 |  | 6.51 µM [rising, single point] |  |
| Cc1cccc(-c2nc(S(=O)(=O)c3ccc(F)cc3)c(NCCCN3CCOCC3)o2)c1 | 22.6% | 6.51 µM [rising, single point] |  |
| CCCCN(C)C(=S)Nc1ccc2nc(N3CCN(CC)CC3)cc(C)c2c1 | 21.3% |  |  |
| COCCNC(=O)COCc1cc(-c2ccc3c(c2)OCO3)on1 | 33% | 29.1 µM [rising, single point] | 32.6 µM [rising, single point] |
| Cc1ccccc1-n1nc2c(c1NC(=O)c1cc3ccccc3oc1=O)CS(=O)C2 (stereo not given) | -19.3% | 5.8 µM [rising, full curve, poor fit] |  |
| O=C(N/N=C\c1cn[nH]c1-c1ccccc1)c1cccnc1 | 48.6% | 1.3 µM [rising, full curve, poor fit] | 10.3 µM [rising, partial curve] |
| CCCC(=O)Nc1ccccc1-c1nnc(SC)[nH]c1=O | -11.9% | 4.11 µM [falling, full curve, poor fit] |  |
| NS(=O)(=O)c1ccc(N/C=C\C(=O)c2ccc(F)cc2)cc1 | 14.4% |  |  |
| COC(=O)C1=C(C)NC(=O)NC1C1CC=CCC1 (stereo not given) | 8.83% |  |  |
| COc1ccc(NC2CCCN(C(=O)c3csc(C(C)C)n3)C2)cc1OC (stereo not given) | -38.1% |  | 32.6 µM [falling, single point] |
| O=C(COC(=O)c1cc([N+](=O)[O-])ccc1N1CCOCC1)NC1CCS(=O)(=O)C1 (stereo not given) | -2.66% | 0.00461 µM [falling, full curve, poor fit] | 0.0461 µM [falling, full curve, poor fit] |
| O=C(Nc1ccnc(-c2cccnc2)n1)c1ccc(F)cc1 | -12.7% | 13 µM [falling, partial curve, poor fit] |  |
| CO/C=C/C#CC1(O)CCN(C)CC1 | -11.2% |  |  |
| CCC(=O)NC(Nc1sc2c(c1C(=O)OC)CCC2)C(Cl)(Cl)Cl (stereo not given) | 58.3% |  | 16.4 µM [rising, single point] |
| COc1ccc2c(c1)c(C(C)=O)c(C)n2-c1ccc(C(C)=O)cc1 | -6.94% |  | 0.164 µM [falling, full curve, poor fit] |
| COc1ccc(-c2cc(C(F)F)n3ncc(C(=O)NCCCN4CCCC4=O)c3n2)cc1 |  |  | 0.116 µM [rising, full curve, poor fit] |

| Compound | cell number change | AC50 [1] | AC50 [2] |
| --- | --- | --- | --- |
| N#Cc1ccccc1CSc1nc(N)cc(N)n1 | -11.1% |  |  |
| O=C(Cn1nc(-c2ccc(Cl)cc2)c2ccccc2c1=O)Nc1cccnc1 | 2.01% | 2.59 µM [rising, partial curve] | 2.59 µM [rising, partial curve] |
| CC(=O)c1c(C)[nH]c(C(=O)OCC(=O)N2CC(C)OC(C)C2)c1C (stereo not given) |  | 16.4 µM [rising, partial curve] |  |
| COc1cccc(N(CC(=O)NC2CCCC2)C(=O)CCC(=O)Nc2cc(C)on2)c1 | -18.4% | 0.112 µM [rising, full curve, poor fit] |  |
| COc1ccccc1OCCNc1ccc(S(=O)(=O)N2CCCC2)cn1 | 19% |  |  |
| Cc1ccc(NC(=O)N2CCCc3ccccc32)cc1 | 32.9% |  | 10.3 µM [rising, partial curve, poor fit] |
| COc1ccc(S(=O)(=O)N2CCC(C(=O)Nc3cc(Cl)ccc3N3CCOCC3)CC2)cc1OC |  | 3.26 µM [rising, single point] | 2.91 µM [rising, single point] |
| O=C(Nc1cc(C(F)(F)F)ccc1N1CCCCC1)c1ccco1 | -8.02% | 1.16 µM [rising, full curve] |  |
| CCCCC[C@H]1CN(C2CCCCC2)C(=O)[C@@H]1CC(=O)NCc1ccc(OC)cc1 | 9.71% | 2.59 µM [falling, partial curve] |  |
| COc1ccc(NS(=O)(=O)c2ccc(C)c(C(=O)NCCCN3CCCC3=O)c2)cc1 | -32.3% | 29.1 µM [falling, single point] | 29.1 µM [falling, single point] |
| Cc1ccc2c(c1)C(C)CC(C)(C)N2C(=O)NC1CCCCC1 (stereo not given) | -29.5% | 10.3 µM [falling, partial curve] | 3.66 µM [falling, full curve, poor fit] |
| CNc1nc(SCC(=O)Nc2ccccc2)nc(N2CCOCC2)n1 | 43.8% | 29.1 µM [rising, single point] | 32.6 µM [rising, single point] |
| Cc1[nH]cc(Br)c(=O)c1Oc1ncc(C(F)(F)F)cc1Cl | 33% |  |  |
| CCN(CC)CCOC(=O)c1ccc(NC(=O)c2cn(-c3ccccc3)nc2-c2cccs2)cc1 | 19% |  |  |
| CCn1ncc(Br)c1C(=O)NC1CCCCCCC1 | 17.6% | 29.1 µM [rising, single point] |  |
| O=C(Nc1ccccc1Cl)N1CCN(c2ccc3nnc(-c4ccc(F)cc4)n3n2)CC1 | -20.1% |  |  |
| CC(C)NC(=O)CCCn1cc([N+](=O)[O-])cn1 | 32.1% |  | 5.8 µM [rising, single point] |
| Cc1ccc(NC(=O)c2cc3ccccc3oc2=N)cc1 | 18.6% | 0.0517 µM [rising, full curve, poor fit] |  |
| O=C(COC(=O)CNC(=O)c1ccc(Br)o1)Nc1ccc2c(c1)OCCO2 | -1.43% | 29.1 µM [rising, single point] |  |
| Cc1ccc(SCC(=O)OCC(=O)NCCc2ccccc2)cc1 | 21.9% | 0.00731 µM [rising, full curve, poor fit] | 0.00461 µM [rising, full curve, poor fit] |

Some of the entries so far, tab-delimited.
Compound	cell number change	AC50 [1]	AC50 [2]
Cc1[nH]cc(Br)c(=O)c1Oc1ncc(C(F)(F)F)cc1Cl	33%		
CCN(CC)CCOC(=O)c1ccc(NC(=O)c2cn(-c3ccccc3)nc2-c2cccs2)cc1	19%		
O=C(Nc1ccccc1Cl)N1CCN(c2ccc3nnc(-c4ccc(F)cc4)n3n2)CC1	-20.1%		

Next compounds:

| Compound | cell number change | AC50 [1] | AC50 [2] |
| --- | --- | --- | --- |
| COc1cc(-c2nc3c4ccccc4nc(=S)n3[nH]2)cc(OC)c1OC | -38.5% | 5.8 µM [falling, partial curve] | 8.2 µM [falling, partial curve, poor fit] |
| CSCCC(NS(=O)(=O)c1cccs1)C(=O)NCc1ccc(C)cc1 (stereo not given) | -9.39% | 0.58 µM [rising, full curve, poor fit] |  |
| CCNc1nc(NCC)nc(N(C)N)n1 |  | 0.58 µM [rising, single point] |  |
| Cc1ccc(Nc2nnc(SCc3cc(=O)n4ccsc4n3)s2)c(C)c1 | 3.43% | 0.517 µM [rising, full curve] |  |
| COc1ccc(/C=N/Nc2nncn2N)cc1Br | -4.4% | 29.1 µM [falling, single point] |  |
| COc1ccccc1Oc1cc(-n2nc(C)cc2C)ncn1 | -38.7% | 2.91 µM [rising, single point] | 3.26 µM [falling, full curve] |
| COc1ccc(OC)c(CNC(=O)CCCn2ccc3cc(S(=O)(=O)N4CCCC4)ccc32)c1 | 4.2% | 0.103 µM [falling, full curve, poor fit] |  |
| Cc1ccc(S(=O)(=O)N2CCN(C(=O)c3cc4c(s3)CCC(C)C4)CC2)cc1 (stereo not given) | -7.5% |  |  |
| O=C(CCl)Nc1nc(-c2ccco2)c(-c2ccco2)s1 | 83.3% |  | 0.411 µM [rising, full curve] |
| O=C(NNc1ccc(Cl)cc1)c1c(F)cccc1Cl | -42.9% |  | 32.6 µM [falling, single point] |
| COCCN(C(=O)COC(=O)CNC(=O)c1cccs1)c1c(N)n(Cc2ccccc2)c(=O)[nH]c1=O | -31.6% |  | 0.92 µM [falling, full curve, poor fit] |
| CC(=O)Nc1ccc(C(=O)OCC(=O)Nc2ccccc2Sc2ccccc2)cc1 | 45.6% | 8.2 µM [rising, partial curve] | 7.31 µM [rising, partial curve] |
| COc1ccc(-n2c(COc3ccc(Cl)cc3)nnc2SCc2ccc(C#N)cc2)cc1 | -13.2% | 1.46 µM [rising, full curve] |  |
| N=c1c2c(ncn1CCN1CCOCC1)Oc1ccc3ccccc3c1C2c1ccccc1 (stereo not given) |  | 3.26 µM [rising, partial curve] | 5.17 µM [rising, single point] |
| CCn1c(N2CCN(CC(=O)c3c[nH]c4ccccc34)CC2)nc2c1c(=O)[nH]c(=O)n2C | 0.769% | 0.116 µM [rising, single point] |  |
| COc1ccc(N2C(=O)N3[C@H](c4ccc(Cl)cc4)[C@@H]4C(=O)N(C5CCCCC5)C(=O)[C@@H]4[C@]3(C)C2=O)cc1 | 22.2% |  |  |
| CCOc1cc(/C=N\NC(=O)C2C(=O)NCC2c2ccccc2)ccc1OC (stereo not given) | 49% |  | 29.1 µM [rising, single point] |
| O=C(NC(=S)Nc1cccc(Cl)c1N1CCCC1)c1ccc(-c2cccc([N+](=O)[O-])c2)o1 | 59.6% |  | 16.4 µM [rising, single point] |
| CSc1nnc(CCNS(=O)(=O)c2ccccc2Br)n1C | 11.2% |  |  |
| Cc1ccc(COc2ccc(Br)cc2/C=N/O)cc1 | -22.9% | 23.1 µM [falling, single point] | 0.92 µM [rising, full curve, poor fit] |
